Measured values: patent publication US20150104507A1 (UCB PHARMA GMBH, priority 2010, published 2015)
The name of at least one read-out is uncertain.

Molecular target: subjects with partial-onset seizures
Experiment: PK-PD modeling of seizure frequency (Emax model, Example 54)
Type: in vivo, human
Details: plasma concentration
Description: Objectives of the PK-PD analysis were to evaluate and describe the correlation between the LCM plasma concentration over time (PK parameter) and the reduction of daily seizures over time (PD parameter) based on the pooled data from the previous clinical human trials.
The evaluation of PK-PD modeling was done based on the Emax model.
The slope of the linear regression is equal to the mean daily number of seizures.
In a first step, the validity of the developed equations for approximation of AUCτ,ss, the PK parameter of interest in the current PK-PD evaluation, was shown.
Based on the relative difference of the individual slopes during Titration and Maintenance Phase vs Baseline slope and the approximated AUCτ,ss,m, the PK-PD evaluation was performed using a linear model, the Emax model, and the Emax 100 model. […] Finally, the Emax model had the lowest weighted sum of squares and was therefore selected as the most appropriate PK-PD model to describe the data. […] The AUC50 is defined as the AUCτ,ss that is needed in individuals to achieve 50% of the maximum effect (decrease in seizure frequency).

For `COC[C@@H](NC(C)=O)C(=O)NCc1ccccc1` [Lacosamide, (R)-2-Acetamido-N-benzyl-3-methoxypropionamide], the “kd, concentration for half of the maximum effect” value was 2.917 µg/mL.
